# Where “and” joins values, the source holds several entries; their conditions need not be identical. Identical values can stand only once. Some of the results follow. For some assays here: The exact form of the protein is not confirmed.
# Legend:
# Assay in all cases: protein microarray (ProtoArray v5.0), streptavidin-Alexa Fluor 647
# Details in all cases: 3'-biotin; 20 mM Tris (pH 7.5), 5 mM MgCl2, 100 mM KCl, 0.1% Tween-20, A/T-rich and random oligonucleotide blockers; temperature not stated; high values mean tight binding
# IRF5 (human) = test system: IRF5 (human)
# IRF6 (human) = test system: IRF6 (human)
# ITGB1BP3 (human) = test system: ITGB1BP3 (human)
# ITM2B = ITM2B (UniProt Q9Y287)
# Importin-4 (human) = test system: Importin-4 (human)
# [1] = test system: Inhibitor of growth protein 4 (human)
# [2] = test system: Interferon alpha-4 (human)
# [3] = test system: Interferon-induced guanylate-binding protein 2 (human)
# [4] = test system: Interleukin-1 receptor antagonist protein (human)
# [5] = test system: Interleukin-18-binding protein (human)
# Interleukin-22 (human) = test system: Interleukin-22 (human)
# Interleukin-24 (human) = test system: Interleukin-24 (human)
# [6] = test system: JmjC domain-containing protein 4 (human)
# Jouberin (human) = test system: Jouberin (human)
# [7] = test system: Junction plakoglobin (human)
# [8] = test system: Junctional adhesion molecule C (human)
# KCNE1L (human) = test system: KCNE1L (human)
# KCNIP1 (human) = test system: KCNIP1 (human)
# KCNIP2 (human) = test system: KCNIP2 (human)
# KCNK7 (human) = test system: KCNK7 (human)
sequence,measurement,setting,value
GGGGACAGGGGTATGGGGAGGGG [G4-3 biotinylated (CtG)],binding signal,IRF5 (human),-0.319 z-score
same,binding signal,IRF6 (human),-0.326 z-score
same,binding signal,ITGB1BP3 (human),-0.344 z-score
same,binding signal,ITM2B,-0.351 z-score
same,binding signal,Importin-4 (human),-0.311 z-score
same,binding signal,[1],-0.343 z-score
same,binding signal,[2],-0.329 z-score and -0.313 z-score
same,binding signal,[3],-0.339 z-score
same,binding signal,[4],-0.304 z-score
same,binding signal,[5],-0.331 z-score
same,binding signal,Interleukin-22 (human),-0.32 z-score
same,binding signal,Interleukin-24 (human),-0.325 z-score
same,binding signal,[6],-0.317 z-score
same,binding signal,Jouberin (human),3.49 z-score
same,binding signal,[7],-0.308 z-score
same,binding signal,[8],-0.321 z-score
same,binding signal,KCNE1L (human),-0.325 z-score
same,binding signal,KCNIP1 (human),-0.334 z-score
same,binding signal,KCNIP2 (human),-0.33 z-score and -0.318 z-score and -0.343 z-score
same,binding signal,KCNK7 (human),-0.318 z-score
